{
  "source": "paper doi:10.1101/107813",
  "binders": {"B1": {"name": "mitochondrial manganese superoxide dismutase (SOD2) (enzyme, UniProt P04179 25-222)", "chain": "KHSLPDLPYDYGALEPHINAQIMQLHHSKHHAAYVNNLNVTEEKYQEALAKGDVTAQIALQPALKFNGGGHINHSIFWTNLSPNGGGEPKGELLEAIKRDFGSFDKFKEKLTAASVGVQGSGWGWLGFNKERGHLQIAACPNQDPLQGTTGLIPLLGIDVWEHAYYLQYKNVRPDYLKAIWNVINWENVTERYMACKK"}},
  "biological_target": "sirtuin 3 (SIRT3) (human (endogenous in HepG2))",
  "assay": "co-IP",
  "note": "These are yes or no findings as the source states them, for the method shown. In cells and extracts the contact can be indirect. Binding can be weak; no strength is given.",
  "data": [
    {"binder": "B1", "values": [
      {"measurement": "binding", "result": "binds"}
    ]}
  ]
}
